# Assay results: US6403607B1, “Sulfonamide derivatives and drugs containing the same as the active ingredient” (priority 1998, dated 2002)
# For at least one compound, name, drawing or mass did not settle the structure.
# Test system: Helicobacter pylori
# Test: Anti-Helicobacter-pylori action (agar plate dilution MIC)
# Type: cell-based
# Parameters: unit not given beside the values
# Details: clinically isolated 10 bacterial strains, agar plate dilution method
# Procedure: Anti-Helicobacter-pylori Action
# Using clinically isolated 10 bacterial strains, the minimum inhibitory concentration (MIC) was measured according to the agar plate dilution method.
smiles,measurement,value
CN(CCOc1ccc(Cl)cc1)c1ccccc1N(CCOCCN)S(=O)(=O)c1ccc(Cl)cc1 [Example 68],MIC,100->100
O=S(=O)(c1ccc(Cl)cc1)N(CCC1CCCCN1)c1cccnc1NCCNc1ccc(Cl)cc1 (centres unmarked) [Example 95],MIC,50->100
